From patent US7897142B2 (GE Healthcare AS, priority 2004, dated 2011) come the findings set out here.

Some peptides are written in HELM: one residue between dots, names in brackets for other building blocks, links after the first $.

The data set can be described thus: peptide synthesis. The note with it: conjugation step.

With “Cys2-6; c[CH2CO-Lys(Cy7 bis-SO3)-Cys-Arg-Gly-Asp-Cys-Phe-Cys]-(PEG)n-NH2 (n=1)”, the conjugation yield turned out to be 36%. The substance “Cys2-6; c[CH2CO-Lys(Cy7 mono-SO3)-Cys-Arg-Gly-Asp-Cys-Phe-Cys]-(PEG)n-NH2(n=1)” came in with a conjugation yield of 38%.

As to “PEPTIDE1{[CH2CO].K.C.R.G.D.C.F.C.[PEG].[am]}|CHEM1{[Cy5bisSO3]}$PEPTIDE1,PEPTIDE1,1:R3-9:R3|PEPTIDE1,PEPTIDE1,3:R3-7:R3|PEPTIDE1,CHEM1,2:R3-1:R2$$$V2.0”, the conjugation yield amounted to 37%.

In turn, “PEPTIDE1{[CH2CO].K.C.R.G.D.C.F.C.[PEG].[am]}|CHEM1{[Cy5monoSO3]}$PEPTIDE1,PEPTIDE1,1:R3-9:R3|PEPTIDE1,PEPTIDE1,3:R3-7:R3|PEPTIDE1,CHEM1,2:R3-1:R2$$$V2.0” showed a conjugation yield of 34%.
